Assay results from doi:10.1101/2023.05.19.541430.

Assays:
Test in all cases: pull-down
[1] = biological target: GST-tagged SQ/DWD motifs of BCP4 (Arabidopsis thaliana)
[2] = biological target: GST-tagged deletion 4 of BCP4 SQ/DWD motif (Arabidopsis thaliana)
[3] = biological target: GST-tagged SQ/DWD motifs of BCP4 (Arabidopsis thaliana); remark: listed apart in the source

Measured: binding

B1: His-tagged full-length NBS1 (protein, UniProt Q0H8D7 1-542)
chain: MVWGLFPVDPLSGEDKYYIFSKGIYKVGRKGCDIIINKDKGVSRIHAELTFDATTVSTSRRNKSSSDTSSFVIRVKDCSKYGTFVKTDLGTKDKVHELSNKEKILQDGDVIAFGTGSAIYRLSLIPLVFYLCPSSETFKVDQPVQDAVSSIGARISPTLSEECTHVLLEPRMQVNEALINAILAKKTIILTNWVMLLAEKSICSEIPGYSQYRPSVMVEEALVDVLELNVREKCLEGFTFVLEPTDTYRFGCSFPSLLEVCGAETVTIEDISSMSQDSQFGEINRMICVIPKSAGDKFGRFKHLSLLSRVNEMDLVCAVFSGNLPSTSLIPPSVVISSSCSTDETVVADSEAEEEETTSSVHMIDATEKAETPEKPAAIVIEDSPVTILEETSNLNEFKSVNLLADTESRGHMDEKNSSDSVTIRRDRNDEAETGKSEIIYTQDLIVRDLRSTRKVQSTGGEGVVDFKRFRKGNVTCGNSFSSLIPFAKDPYKEYDSWDVTDFMKEEKKRKQMEAIAEDLFKTEKARKRGTAGSIRGFLSGS
binds: all assays above

Where two headings read alike, the source gives them in different places. No constants are given. Whether binding was seen depends on the method and setting. Binding can be weak; no strength is given. Sequences can lack the tags named with a protein. For part of these data: Binding seen in cells or lysates may run through a third protein.
